Article PMC8674535
These are yes or no findings as the source states them, for the method shown. Binding seen in cells or lysates may run through a third protein. Some results given as binding are weak or reduced against the parent protein; the word gives no strength. Sequences can lack the tags named with a protein.

Tests used:
[1] = biological target: T1, FLAG-SPRTN ΔUBZ (Δ452-482aa) (UniProt Q9H040); experiment: co-IP; FLAG-SPRTN variants overexpressed in HEK293, captured from benzonase-digested total cell extracts on anti-FLAG M2 affinity gel or magnetic beads under native conditions (50 mM Tris-HCl pH 7.4, 150 mM NaCl, 0.5% NP-40), 4 h at 4°C, eluted with 3X FLAG peptide, western blot; cells untreated or treated with 1 mM FA for 1 h
T1 sequence: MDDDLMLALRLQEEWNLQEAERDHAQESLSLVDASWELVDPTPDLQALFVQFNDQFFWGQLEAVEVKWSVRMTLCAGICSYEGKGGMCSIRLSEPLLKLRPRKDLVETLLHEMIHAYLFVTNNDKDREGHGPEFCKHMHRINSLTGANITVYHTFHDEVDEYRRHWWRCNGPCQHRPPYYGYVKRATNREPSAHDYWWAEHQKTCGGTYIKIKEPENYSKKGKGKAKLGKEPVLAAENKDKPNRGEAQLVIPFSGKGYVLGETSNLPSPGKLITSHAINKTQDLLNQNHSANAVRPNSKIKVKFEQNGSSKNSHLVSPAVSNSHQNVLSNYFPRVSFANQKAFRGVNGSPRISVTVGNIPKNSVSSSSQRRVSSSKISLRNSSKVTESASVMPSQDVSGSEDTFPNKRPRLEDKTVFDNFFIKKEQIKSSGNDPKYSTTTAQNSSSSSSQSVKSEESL

FLAG-SPRTN wild type = biological target: T2, FLAG-SPRTN wild type (UniProt Q9H040); experiment: as above
T2 sequence: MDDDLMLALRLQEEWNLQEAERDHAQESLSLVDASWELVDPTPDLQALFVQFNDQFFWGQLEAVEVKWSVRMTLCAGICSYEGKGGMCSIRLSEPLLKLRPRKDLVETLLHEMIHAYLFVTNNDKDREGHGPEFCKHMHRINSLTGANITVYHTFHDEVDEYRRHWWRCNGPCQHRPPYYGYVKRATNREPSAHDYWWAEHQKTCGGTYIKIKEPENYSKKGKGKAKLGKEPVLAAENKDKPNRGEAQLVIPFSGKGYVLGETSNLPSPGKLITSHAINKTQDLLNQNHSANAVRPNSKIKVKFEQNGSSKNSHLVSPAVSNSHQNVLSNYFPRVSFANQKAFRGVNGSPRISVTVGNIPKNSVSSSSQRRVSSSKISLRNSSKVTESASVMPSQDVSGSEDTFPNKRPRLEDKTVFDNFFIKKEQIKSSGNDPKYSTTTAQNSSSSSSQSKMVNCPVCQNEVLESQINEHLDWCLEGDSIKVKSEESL

p97 (from UniProt P55072 1-806)
binding [1]: binds | binding (FLAG-SPRTN wild type): binds
